Test results taken from paper PMC12669739.
No constants are given. Whether binding was seen depends on the method and setting. Binding seen in cells or lysates may run through a third protein. Here binding means that the protein was enriched with, or labelled near, the bait; the list need not be complete. Where a sequence is shown, tags or fusion partners need not be part of it.

By UniProt entry, the sequences of proteins in these tests, tags left out. Where a name states a change or a piece, a line headed by the entry shows the natural chain unless it says otherwise. Residues count along the entry.
UniProt Q9UIW2, residues 27-1896: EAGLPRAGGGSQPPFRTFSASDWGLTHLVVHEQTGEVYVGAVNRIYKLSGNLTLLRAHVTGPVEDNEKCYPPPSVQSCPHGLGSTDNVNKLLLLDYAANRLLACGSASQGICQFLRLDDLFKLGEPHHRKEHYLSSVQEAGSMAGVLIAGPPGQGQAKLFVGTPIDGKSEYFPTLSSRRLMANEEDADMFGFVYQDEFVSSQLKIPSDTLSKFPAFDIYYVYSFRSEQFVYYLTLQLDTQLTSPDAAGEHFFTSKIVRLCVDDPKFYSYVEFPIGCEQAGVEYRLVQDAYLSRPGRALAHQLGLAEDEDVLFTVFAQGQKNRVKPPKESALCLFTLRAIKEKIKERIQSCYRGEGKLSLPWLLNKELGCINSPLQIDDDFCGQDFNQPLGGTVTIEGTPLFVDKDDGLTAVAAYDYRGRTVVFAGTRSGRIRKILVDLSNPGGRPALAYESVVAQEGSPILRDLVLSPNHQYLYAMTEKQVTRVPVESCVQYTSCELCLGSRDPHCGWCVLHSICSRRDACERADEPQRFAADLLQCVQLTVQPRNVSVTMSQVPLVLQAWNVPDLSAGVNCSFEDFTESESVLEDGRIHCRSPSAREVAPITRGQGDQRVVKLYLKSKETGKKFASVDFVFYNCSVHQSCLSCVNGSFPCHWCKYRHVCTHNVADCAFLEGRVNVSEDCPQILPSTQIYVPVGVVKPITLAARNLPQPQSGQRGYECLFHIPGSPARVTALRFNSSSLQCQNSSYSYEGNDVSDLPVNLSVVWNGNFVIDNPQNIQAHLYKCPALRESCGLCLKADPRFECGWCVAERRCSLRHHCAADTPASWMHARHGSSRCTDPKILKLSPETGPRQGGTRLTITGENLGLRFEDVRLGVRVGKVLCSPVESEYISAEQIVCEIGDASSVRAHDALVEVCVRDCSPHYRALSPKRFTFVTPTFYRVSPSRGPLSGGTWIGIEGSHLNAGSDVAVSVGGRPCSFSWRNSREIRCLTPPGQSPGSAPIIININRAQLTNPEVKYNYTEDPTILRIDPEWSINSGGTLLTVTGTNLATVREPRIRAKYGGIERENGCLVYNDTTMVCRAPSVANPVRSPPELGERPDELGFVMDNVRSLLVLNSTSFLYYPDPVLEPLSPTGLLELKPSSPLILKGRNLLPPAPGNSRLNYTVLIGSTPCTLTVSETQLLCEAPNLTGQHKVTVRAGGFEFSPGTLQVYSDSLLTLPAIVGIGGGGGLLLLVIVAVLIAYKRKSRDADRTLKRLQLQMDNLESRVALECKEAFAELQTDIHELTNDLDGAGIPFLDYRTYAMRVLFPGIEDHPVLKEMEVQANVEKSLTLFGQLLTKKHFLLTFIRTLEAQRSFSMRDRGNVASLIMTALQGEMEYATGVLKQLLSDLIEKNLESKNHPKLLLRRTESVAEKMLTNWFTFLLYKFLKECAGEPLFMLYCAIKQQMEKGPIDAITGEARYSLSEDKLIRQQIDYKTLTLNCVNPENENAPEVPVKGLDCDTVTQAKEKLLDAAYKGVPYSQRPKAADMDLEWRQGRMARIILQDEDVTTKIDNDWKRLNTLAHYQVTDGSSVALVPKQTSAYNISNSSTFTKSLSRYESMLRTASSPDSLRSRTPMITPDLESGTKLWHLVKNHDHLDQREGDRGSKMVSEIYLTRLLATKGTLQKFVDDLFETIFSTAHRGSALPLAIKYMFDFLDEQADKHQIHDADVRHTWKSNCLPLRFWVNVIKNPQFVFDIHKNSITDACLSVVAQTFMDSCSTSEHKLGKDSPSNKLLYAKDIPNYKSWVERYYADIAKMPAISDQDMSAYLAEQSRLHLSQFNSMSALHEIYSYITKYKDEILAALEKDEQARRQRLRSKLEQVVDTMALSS

Molecular target: T1, NRP2-TurboID construct (NRP2 fused to miniTurbo biotin ligase) (human) (UniProt O60462)
T1 sequence: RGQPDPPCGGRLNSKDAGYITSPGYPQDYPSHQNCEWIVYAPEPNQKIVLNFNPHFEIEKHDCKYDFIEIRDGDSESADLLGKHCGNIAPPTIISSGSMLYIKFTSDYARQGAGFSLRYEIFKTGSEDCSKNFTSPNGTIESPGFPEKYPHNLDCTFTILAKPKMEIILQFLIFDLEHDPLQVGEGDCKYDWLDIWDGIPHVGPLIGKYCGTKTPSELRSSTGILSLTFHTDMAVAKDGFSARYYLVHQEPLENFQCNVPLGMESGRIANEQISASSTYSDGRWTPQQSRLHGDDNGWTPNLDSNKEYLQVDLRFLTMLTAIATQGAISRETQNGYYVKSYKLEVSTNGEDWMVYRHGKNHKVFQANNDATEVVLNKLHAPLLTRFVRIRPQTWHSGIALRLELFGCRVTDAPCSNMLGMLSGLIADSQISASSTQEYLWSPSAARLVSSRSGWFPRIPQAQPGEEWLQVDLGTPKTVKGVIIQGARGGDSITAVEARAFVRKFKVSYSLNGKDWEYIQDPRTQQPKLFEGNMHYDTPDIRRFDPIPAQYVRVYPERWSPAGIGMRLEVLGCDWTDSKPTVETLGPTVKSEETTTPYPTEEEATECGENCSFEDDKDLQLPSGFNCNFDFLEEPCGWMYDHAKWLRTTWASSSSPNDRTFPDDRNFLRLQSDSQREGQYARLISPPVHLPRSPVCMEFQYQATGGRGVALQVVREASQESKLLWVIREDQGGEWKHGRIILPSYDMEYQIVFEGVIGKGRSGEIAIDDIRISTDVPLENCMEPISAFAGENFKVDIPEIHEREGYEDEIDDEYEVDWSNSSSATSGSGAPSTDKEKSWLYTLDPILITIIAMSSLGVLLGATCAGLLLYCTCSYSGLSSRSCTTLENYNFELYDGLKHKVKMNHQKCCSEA
Experiment: proximity labelling; T98G cells transfected with NRP2-miniTurbo for 48 h, 50 μM biotin for 10 min, streptavidin magnetic beads, immunoblot

binding: binds
Substance: PLXNA1 (endogenous, T98G cells) (from UniProt Q9UIW2 27-1896) (receptor)
